Data source: PubChem BioAssay AID1159578 (Peter MacCallum Cancer Centre, 2015)
Screen: 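siRNA pools altering how lymphatic endothelial cells close a scratch wound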 (primary screen). System: human lymphatic endothelial cells. Reagents: siRNA pool against human genes, 40 nM. Timing: 48 h after transfection. Measured: 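High-content imaging of dye-stained cells in a scratch assay measures filled wound area and nuclei per well; duplicate means given as ratio to mock and robust z-score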. Direction: migration robust z-score: higher = faster migration into the scratch; nuclei per well: higher = more cells in the well. Call rule: 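Migration changed when robust z exceeds 2 or falls below -2 and mean nuclei number is at least 3300; otherwise not called changed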. Meaning of the calls: active = migration changed; inactive = no migration change, or too few cells.
Shown is an unselected part of about 18,000 reagents tested. Of all reagents, about 1,030 (5.7%) got an active call. 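Inactive calls also include pools with fewer than 3300 nuclei, whose migration was not assessed.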 Raw values are not corrected between plates. Not all columns of the deposit are shown.

After knock-down of BPHL (GeneID 670), the record shows migration robust z-score 0.29; migration class with cell-count check migration z between -2 and 2; enough cells; nuclei per well, duplicate mean 7532; inactive.
After knock-down of PEX11G (GeneID 92960), the screen gave migration robust z-score -1.99; migration class with cell-count check migration z between -2 and 2; enough cells; nuclei per well, duplicate mean 3945; inactive.
Against FES (GeneID 2242), the values are migration robust z-score -0.76; migration class with cell-count check migration z between -2 and 2; enough cells; nuclei per well, duplicate mean 6458; inactive.
Against NDUFA6 (GeneID 4700), the entry reads migration robust z-score 0.83; migration class with cell-count check migration z between -2 and 2; enough cells; nuclei per well, duplicate mean 7112; inactive.
With knock-down of XYLT1 (GeneID 64131) the results were migration robust z-score -0.99; migration class with cell-count check migration z between -2 and 2; enough cells; nuclei per well, duplicate mean 4986; inactive.
Against MAN1A2 (GeneID 10905) the deposit lists migration robust z-score -0.47; migration class with cell-count check migration z between -2 and 2; enough cells; nuclei per well, duplicate mean 5574; inactive.
With knock-down of STT3A (GeneID 3703), the screen gave migration robust z-score -0.86; migration class with cell-count check migration z between -2 and 2; enough cells; nuclei per well, duplicate mean 5612; inactive.
NUAK2 (GeneID 81788) gave migration robust z-score -2.1; migration class with cell-count check migration z below -2; enough cells; nuclei per well, duplicate mean 3606; active.
Depletion of PRKN (GeneID 5071) came out at: migration robust z-score -0.76; migration class with cell-count check migration z between -2 and 2; enough cells; nuclei per well, duplicate mean 5169; inactive.
RUNX1 (GeneID 861) showed migration robust z-score -1.06; migration class with cell-count check migration z between -2 and 2; enough cells; nuclei per well, duplicate mean 4742; inactive.
Depletion of TFPT (GeneID 29844) came out at: migration robust z-score 0.92; migration class with cell-count check migration z between -2 and 2; enough cells; nuclei per well, duplicate mean 5892; inactive.
After knock-down of ST3GAL4 (GeneID 6484), the screen gave migration robust z-score -0.21; migration class with cell-count check migration z between -2 and 2; enough cells; nuclei per well, duplicate mean 5404; inactive.
Against REEP5 (GeneID 7905) the deposit lists migration robust z-score -0.07; migration class with cell-count check under 3300 nuclei; migration not judged; nuclei per well, duplicate mean 3272; inactive.
Knock-down of CMKLR1 (GeneID 1240) resulted in: migration robust z-score -0.8; migration class with cell-count check migration z between -2 and 2; enough cells; nuclei per well, duplicate mean 5266; inactive.
